No constants are given. Whether binding was seen depends on the method and setting. Binding seen in cells or lysates may run through a third protein. Some binding calls cover weakened binding; strength is not graded here.

Sequences of proteins named here, by UniProt entry; tags and fusion partners are left off. Residues count along the entry.
UniProt Q15118, residues 29-436: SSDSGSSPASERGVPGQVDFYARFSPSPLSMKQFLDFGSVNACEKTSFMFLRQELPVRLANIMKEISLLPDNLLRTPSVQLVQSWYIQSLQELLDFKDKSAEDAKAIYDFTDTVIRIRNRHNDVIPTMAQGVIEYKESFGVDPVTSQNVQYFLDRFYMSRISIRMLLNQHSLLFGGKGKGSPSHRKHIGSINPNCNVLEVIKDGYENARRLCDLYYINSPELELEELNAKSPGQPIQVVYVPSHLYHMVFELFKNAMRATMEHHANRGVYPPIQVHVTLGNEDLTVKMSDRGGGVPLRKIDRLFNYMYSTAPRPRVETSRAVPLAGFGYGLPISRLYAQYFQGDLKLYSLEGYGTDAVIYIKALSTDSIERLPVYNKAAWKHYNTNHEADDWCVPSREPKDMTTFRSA

Among the data in article PMC6345044 are binding values, retold here.

This assay concerns the target T1, pyruvate dehydrogenase E1α (human (endogenous in MCF-7)) (UniProt P08559).
T1 sequence: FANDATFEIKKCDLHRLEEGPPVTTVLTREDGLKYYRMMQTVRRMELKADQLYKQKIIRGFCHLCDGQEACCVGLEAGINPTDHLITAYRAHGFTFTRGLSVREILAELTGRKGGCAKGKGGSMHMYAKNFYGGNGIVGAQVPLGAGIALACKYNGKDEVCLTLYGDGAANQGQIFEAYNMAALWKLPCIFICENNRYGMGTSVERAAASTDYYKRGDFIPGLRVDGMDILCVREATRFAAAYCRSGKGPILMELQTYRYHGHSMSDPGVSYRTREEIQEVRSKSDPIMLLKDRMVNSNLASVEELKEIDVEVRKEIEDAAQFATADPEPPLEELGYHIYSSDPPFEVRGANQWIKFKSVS
Put plainly: co-IP; endogenous PDH E1α immunoprecipitated from lysates of control and TPD54 stably knocked down MCF-7 cells (2 ug PDH E1α antibody overnight at 4 °C, protein A agarose); immunoblot for PDK1. For orientation: A western blot detects proteins with antibodies after separation by electrophoresis.

Consider “pyruvate dehydrogenase kinase 1 (from UniProt Q15118 29-436) (enzyme)”, for which the binding result was “binds”.
